These are yes or no findings as the source states them, for the method shown. Binding seen in cells or lysates may run through a third protein. Some binding calls cover weakened binding; strength is not graded here. For part of these data: Where a sequence is shown, tags or fusion partners need not be part of it.
Experiments:
[1] = molecular target: neuroplastin isoforms, endogenous in rat forebrain (rat (endogenous in forebrain)) (UniProt P97546); experiment: co-IP; RIPA homogenates of forebrain (3 weeks-old rats) or hippocampus (2 weeks-old Nptn+/+ and Nptn-/- mice); rabbit anti-neuroplastin antibody overnight, Protein G Sepharose; pre-immune IgG as control; blot with anti-TRAF6
[2] = molecular target: neuroplastin isoforms, endogenous in mouse hippocampus (mouse (endogenous in hippocampus)) (UniProt P97300); experiment: as above
[3] = molecular target: GFP-tagged neuroplastin 65 without the DDEP insert (UniProt P97546); experiment: co-IP; HEK cells co-transfected for 24 h with GFP-tagged neuroplastin constructs and Flag-TRAF6; RIPA lysate; anti-GFP magnetic beads (uMACS), 4 h at 4 C; blot with anti-Flag and anti-GFP

Protein sequences, listed by entry. Tags and fused reporters are not part of them. Residues count along the entry.
UniProt P97546, residues 29-393: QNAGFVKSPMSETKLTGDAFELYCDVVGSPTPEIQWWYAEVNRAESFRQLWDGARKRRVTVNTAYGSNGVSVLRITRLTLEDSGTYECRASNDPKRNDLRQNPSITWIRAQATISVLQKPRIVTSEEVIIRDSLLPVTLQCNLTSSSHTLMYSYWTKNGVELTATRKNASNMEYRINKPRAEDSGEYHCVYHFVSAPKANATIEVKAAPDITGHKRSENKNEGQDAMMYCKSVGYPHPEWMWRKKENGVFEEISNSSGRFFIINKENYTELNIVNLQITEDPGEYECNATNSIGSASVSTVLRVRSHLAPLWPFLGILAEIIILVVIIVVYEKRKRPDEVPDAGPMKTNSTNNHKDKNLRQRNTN
UniProt P97300, residues 29-397: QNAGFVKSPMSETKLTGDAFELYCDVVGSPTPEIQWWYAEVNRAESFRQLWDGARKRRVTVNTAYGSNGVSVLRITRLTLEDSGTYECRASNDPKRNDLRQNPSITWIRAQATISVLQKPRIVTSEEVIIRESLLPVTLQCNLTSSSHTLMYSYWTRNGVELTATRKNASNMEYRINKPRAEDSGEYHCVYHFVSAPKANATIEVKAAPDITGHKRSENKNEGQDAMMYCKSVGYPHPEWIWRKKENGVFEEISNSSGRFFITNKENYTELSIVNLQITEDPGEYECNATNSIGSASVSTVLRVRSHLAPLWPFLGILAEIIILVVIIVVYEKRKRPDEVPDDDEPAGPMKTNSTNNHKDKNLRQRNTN

B1: TRAF6, endogenous in rat forebrain (protein, UniProt B5DF45 1-530)
chain: MSLLNCENSCASSQSSSDCCAAMANSCSAAMKDDSVSGCVSTGNLSSSFMEEIQGYDVEFDPPLESKYECPICLMALREAVQTPCGHRFCKACITKSIRDAGHKCPVDNEILLENQLFPDNFAKREILSLTVKCPNKGCVQKMELRHLEDHQVHCEFALVICPQCQRFFQKCQINKHIIEDCPRRQVSCVNCAVPMPYEEKEIHDQSCPLANIICEYCGTILIREQMPNHYDLDCPTAPVPCTFSVFGCHEKMQRNHLARHLQENTQLHMRLLAQAVHNVNLSLRPCDASSPSRGCRPEDPNYEETVKQLEGRLVRQDHQIRELTAKMETQSMHVSELKRTIRSLEDKVAEMEAQQCNGIYIWKIGNFGMHLKSQEEERPVVIHSPGFYTGRPGYKLCMRLHLQLPTAQRCANYISLFVHTMQGEYDSHLPWPFQGTIRLTILDQSEAVIRQNHEEVMDAKPELLAFQRPTIPRNPKGFGYVTFMHLEALRQGTFIKDDTLLVRCEVSTRFDMGGLRKEGFQPRSTDAGV
binding [1]: binds

B2: TRAF6, endogenous in mouse hippocampus (protein, UniProt P70196 1-530)
chain: MSLLNCENSCGSSQSSSDCCAAMAASCSAAVKDDSVSGSASTGNLSSSFMEEIQGYDVEFDPPLESKYECPICLMALREAVQTPCGHRFCKACIIKSIRDAGHKCPVDNEILLENQLFPDNFAKREILSLTVKCPNKGCLQKMELRHLEDHQVHCEFALVNCPQCQRPFQKCQVNTHIIEDCPRRQVSCVNCAVSMAYEEKEIHDQSCPLANIICEYCGTILIREQMPNHYDLDCPTAPIPCTFSVFGCHEKMQRNHLARHLQENTQLHMRLLAQAVHNVNLALRPCDAASPSRGCRPEDPNYEETIKQLESRLVRQDHQIRELTAKMETQSMYVGELKRTIRTLEDKVAEMEAQQCNGIYIWKIGNFGMHLKSQEEERPVVIHSPGFYTGRPGYKLCMRLHLQLPTAQRCANYISLFVHTMQGEYDSHLPWPFQGTIRLTILDQSEALIRQNHEEVMDAKPELLAFQRPTIPRNPKGFGYVTFMHLEALRQGTFIKDDTLLVRCEVSTRFDMGGLRKEGFQPRSTDAGV
binding [2]: binds

B3: mouse N-terminal Flag-tagged TRAF6 (protein, UniProt P70196 1-530)
chain: B2 chain
binding [3]: binds

Reference: article PMC7755605
